This is one part of the list. Further columns of the screen follow, without active or inactive calls. Most of these compounds were active or inconclusive in the main read-out, so they are no random draw. Potencies come from curve fits of mixed quality, noted in brackets.
Experiment: qHTS Assay for Lipid Storage Modulators in Drosophila S3 Cells;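 for cell number change: cells counted by Cell Tracker Red CMTPX staining in the red channel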
Conditions: BODIPY lipid droplet fluorescence, 18-24 h; for cell number change: measured here: cell count max response, cells fed with added oleic acid
In short: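 Drosophila S3 cells got compounds at several concentrations plus oleic acid (400 uM solution). Laser-scanning cytometry with 488 nm excitation read lipid droplets at 500-530 nm and cells at 575-640 nm. Percent activity was relative to 20 uM Triacsin C.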

[1] = measured here: lipid fluorescence (Fed channel) AC50, cells fed with added oleic acid
[2] = measured here: cell number channel AC50, cells fed with added oleic acid

Compound: COc1cccc(NC(=O)Cn2cnc3sc(C)c(S(=O)(=O)N4CCCCC4)c3c2=O)c1
- cell number change: 19.8%

Compound: O=c1oc2cc([N+](=O)[O-])ccc2nc1/C=C(O)/C=C/c1ccccc1
- cell number change: -10.9%

Compound: COc1ccc(Cl)cc1S(=O)(=O)N1CCN(Cc2ccc3c(c2)OCO3)CC1
- AC50 [1]: 6.51 µM [falling, single point]

Compound: CCCN(CCC)CCCNC(=O)C1c2cc(OC)c(OC)cc2C(=O)N(C)C1c1cccs1 (configuration not stated)
- cell number change: 3.73%
- AC50 [1]: 29.1 µM [falling, single point]

Compound: CCC(C)NC(=O)CO/N=C/c1ccccc1OC(F)F (configuration not stated)
- cell number change: 23%
- AC50 [2]: 6.51 µM [rising, single point]
- AC50 [1]: 1.64 µM [rising, partial curve]

Compound: COc1ccc(C(=O)NC(C(=O)NCC2(N3CCCCC3)CCCCC2)C(C)C)cc1 (configuration not stated)
- cell number change: -6.01%
- AC50 [2]: 0.116 µM [falling, full curve, poor fit]
- AC50 [1]: 0.103 µM [falling, full curve, poor fit]

Compound: O=C(N/N=C/c1ccccc1O)c1cc[n+]([O-])cc1
- AC50 [1]: 6.51 µM [falling, single point]

Compound: CC1CN(c2sc(S(C)(=O)=O)nc2S(=O)(=O)c2ccc(Cl)cc2)CC(C)O1 (configuration not stated)
- cell number change: -9.89%

Compound: O=[N+]([O-])c1cccnc1N1CCN(c2ccc(F)cc2)CC1
- cell number change: -21.6%
- AC50 [1]: 18.4 µM [falling, single point]

Compound: COc1ccc([N+](=O)[O-])cc1NC(=O)Cc1noc2ccc(C)cc12
- cell number change: -14.5%

Compound: CC(OC(=O)CCC1CCCCC1)C(=O)Nc1ccc(S(N)(=O)=O)cc1 (configuration not stated)
- cell number change: -37.5%
- AC50 [2]: 16.4 µM [falling, single point]

Compound: O=C(c1ccc(Br)o1)N(Cc1ccccc1)Cc1ccccc1
- cell number change: -16.6%
- AC50 [1]: 1.84 µM [rising, partial curve]

Compound: COC(=O)Nc1ccc(S(=O)(=O)Nc2cc(C(F)(F)F)c[nH]c2=O)cc1
- cell number change: 8.56%

Compound: Cc1nn(-c2ccccc2)c(Cl)c1C(=O)NCC(=O)O
- cell number change: -13.7%
- AC50 [1]: 23.1 µM [falling, partial curve]

Compound: c1ccc2cc(CNCc3cccc4ccccc34)ccc2c1
- cell number change: -42.2%
- AC50 [2]: 29.1 µM [falling, single point]
- AC50 [1]: 29.1 µM [falling, single point]

Compound: CC1(c2cccc([N+](=O)[O-])c2)CC(C)(C)N(C(=O)c2ccccc2)c2ccccc21 (configuration not stated)
- cell number change: 31%
- AC50 [2]: 3.26 µM [rising, partial curve, poor fit]
- AC50 [1]: 5.17 µM [rising, full curve]

Compound: CCCCn1c(-c2csc3ccccc23)n[nH]c1=S
- AC50 [1]: 0.651 µM [falling, single point]

Compound: CCc1ccc(C(C)NC(=O)/C(C#N)=C\c2cn[nH]c2-c2ccccc2)cc1 (configuration not stated)
- cell number change: -40.6%
- AC50 [2]: 16.4 µM [falling, partial curve, poor fit]
- AC50 [1]: 0.13 µM [rising, full curve, poor fit]

Compound: N#C/C(=N\Nc1ccccc1Cl)C(=O)c1ccccc1
- cell number change: -8.68%

Compound: O=C(N/N=C/c1ccc(C(F)(F)F)cc1)c1ccncc1
- cell number change: 11%
- AC50 [1]: 29.1 µM [rising, single point]

Compound: Nc1ccc(C(=O)OCc2ccncc2)cc1[N+](=O)[O-]
- cell number change: 12%
- AC50 [2]: 0.731 µM [falling, single point]
- AC50 [1]: 0.116 µM [rising, full curve, poor fit]

Compound: O=C(CNC(=O)c1ccc2c(c1)OCO2)N/N=C(Br)/C=C/c1ccccc1
- cell number change: -36.7%
- AC50 [2]: 1.64 µM [rising, partial curve]
- AC50 [1]: 2.31 µM [rising, partial curve]

Compound: CC(Sc1nc2ccccc2c(=O)n1CCc1ccc(S(N)(=O)=O)cc1)C(=O)NC(N)=O (configuration not stated)
- cell number change: -16.7%

Compound: Cc1ccc(S(=O)(=O)N(C)C)cc1NC(=O)c1cncc(Br)c1
- AC50 [1]: 5.8 µM [falling, partial curve]

Compound: CN(c1nc(-c2ccc(Br)cc2)cs1)C1CCS(=O)(=O)C1 (configuration not stated)
- AC50 [2]: 6.51 µM [rising, partial curve, poor fit]
- AC50 [1]: 2.31 µM [rising, single point]

Compound: COC(=O)C(C)Oc1ccc(-c2nccc(-c3ccc(F)cc3)n2)cc1 (configuration not stated)
- cell number change: 1.06%
- AC50 [1]: 6.51 µM [rising, single point]

Compound: CCOC(=O)C1CCCN(C(=O)c2sc3nc(-c4ccc(OC)cc4)cn3c2C)C1 (configuration not stated)
- cell number change: -32.5%
- AC50 [2]: 29.1 µM [falling, single point]
- AC50 [1]: 16.4 µM [falling, single point]

Compound: N#Cc1cccc(NS(=O)(=O)c2ccc(S(=O)(=O)N3CCOCC3)cc2)c1
- cell number change: 43.3%
- AC50 [2]: 14.6 µM [rising, partial curve]
- AC50 [1]: 6.51 µM [falling, single point]

Compound: O=C(CCC1CCCCC1)NCc1cccs1
- cell number change: 51.8%
- AC50 [2]: 29.1 µM [rising, single point]

Compound: CCc1noc(C)c1C(=O)OCC(=O)NCc1ccccc1
- cell number change: 2.77%
- AC50 [1]: 16.4 µM [rising, single point]

Compound: COc1ccc(C(=O)CCC(=O)N2CCN(c3cccc(Cl)c3)CC2)cc1
- cell number change: -1.15%
- AC50 [1]: 9.2 µM [falling, partial curve]

Compound: CCOC(=O)CNC(=O)CSc1nnnn1-c1ccc(C)c(C)c1
- cell number change: -9.14%
- AC50 [1]: 1.16 µM [rising, full curve]

Compound: Cc1cccc(C2c3[nH]c4ccccc4c3CCN2C(=O)CN2CCOC2=O)n1 (configuration not stated)
- cell number change: 11.5%
- AC50 [1]: 2.59 µM [rising, partial curve, poor fit]

Compound: CNC(=O)COC(=O)CCC(=O)c1cccs1
- cell number change: -107%
- AC50 [2]: 18.4 µM [falling, partial curve, poor fit]
- AC50 [1]: 32.6 µM [falling, partial curve, poor fit]

Compound: COc1ccc(N/C(=N\c2nc(C)cc(C)n2)NC(C)=O)cc1OC
- AC50 [1]: 0.058 µM [falling, full curve, poor fit]

Compound: COC(=O)c1sc(N)c(C(=O)OC)c1Cn1ncc(Cl)c(Cl)c1=O
- cell number change: -45.5%
- AC50 [2]: 29.1 µM [falling, single point]
- AC50 [1]: 29.1 µM [falling, single point]

Compound: c1ccc(Nc2cc(-c3ccccc3)nc3ncnn23)cc1
- cell number change: -12.1%
- AC50 [1]: 1.16 µM [rising, full curve]

Compound: S=C(NCCc1ccccc1)N1CCCCC1
- cell number change: -32.1%

Compound: Cc1cccc(CN2CCN(CC(=O)NCc3cccs3)C2=O)c1
- cell number change: -3.12%
- AC50 [1]: 3.66 µM [falling, single point]

Compound: CC(C)c1ccccc1NS(=O)(=O)N(C)C
- AC50 [2]: 1.46 µM [falling, partial curve, poor fit]
- AC50 [1]: 0.82 µM [falling, full curve]

Compound: Cc1c(Cc2ccccc2)c(=O)oc2cc(OC(=O)c3ccccc3)ccc12
- cell number change: -25.1%
- AC50 [2]: 0.259 µM [falling, full curve]
- AC50 [1]: 0.092 µM [falling, full curve, poor fit]

Compound: CCc1ccccc1NC(=S)N(CCCN1CCOCC1)Cc1ccccn1
- cell number change: 96%
- AC50 [2]: 29.1 µM [rising, single point]
- AC50 [1]: 8.2 µM [rising, partial curve]

Compound: COc1ccc(NC(=S)N2CCN(S(=O)(=O)c3ccc(F)cc3)CC2)cc1
- cell number change: 21.7%

Compound: COc1ccc(S(=O)(=O)CC2(O)CCN(C(=O)CC(C)C)CC2)cc1
- cell number change: -56.3%
- AC50 [2]: 29.1 µM [falling, single point]

Compound: O=C(Nc1cccc(NC(=O)c2cccs2)c1)c1ccc([N+](=O)[O-])o1
- cell number change: -46.4%
- AC50 [2]: 7.31 µM [falling, partial curve]
- AC50 [1]: 4.61 µM [falling, full curve]

Compound: Cc1csc2nc(O)c(C(=O)NCCCc3ccccc3)c(=O)n12
- AC50 [2]: 0.00651 µM [falling, full curve, poor fit]

Compound: COc1ccc2nc(NC(=O)C3=NN(c4ccccc4)C(=O)CC3)sc2c1
- cell number change: 35.5%
- AC50 [2]: 16.4 µM [rising, single point]
- AC50 [1]: 16.4 µM [rising, partial curve]

Compound: COc1cccc(OC)c1C(=O)Nc1cc2c(cc1N1CCOCC1)n(C)c(=O)n2C
- cell number change: 6.49%
- AC50 [1]: 29.1 µM [falling, single point]

Compound: O=C(OC1CCOC1=O)c1cncc(Br)c1 (configuration not stated)
- cell number change: -2.45%
- AC50 [1]: 7.31 µM [falling, partial curve]

Compound: N/C(=N\NC(=O)Nc1ccccc1)c1ccccn1
- cell number change: 3.27%
- AC50 [2]: 0.146 µM [falling, full curve, poor fit]

Compound: Cc1ccc(C(=O)Nc2cccc(C(=O)O)c2)cc1S(=O)(=O)N1CCCCC1
- cell number change: 3.44%
- AC50 [1]: 6.51 µM [rising, single point]

Compound: O=C(Nc1ccc2c(c1)OCO2)c1ccc([N+](=O)[O-])cc1[N+](=O)[O-]
- cell number change: -25.7%
- AC50 [1]: 29.1 µM [falling, single point]

Compound: O=C1CSC(=Nc2ccc(Cl)cc2)N1Cc1cccnc1
- cell number change: 37.2%
- AC50 [2]: 29.1 µM [rising, single point]

Compound: COc1cc(O)c(CCC(=O)c2ccc(OC)c(OC)c2)c(OC)c1
- cell number change: -30.2%
- AC50 [2]: 9.2 µM [falling, single point]

Compound: NS(=O)(=O)OCC(Cc1ccccc1)N1C(=O)c2ccccc2C1=O (configuration not stated)
- cell number change: -0.971%
- AC50 [1]: 29.1 µM [rising, single point]

Compound: Cc1cc(C(=O)NNc2ccc(F)cc2F)no1
- cell number change: 25%
- AC50 [1]: 14.6 µM [rising, single point]

Compound: COc1ccc(OC)c(CCNC(=O)c2ccc(CS(=O)(=O)c3ccc(Br)cc3)o2)c1
- cell number change: -34.8%
- AC50 [2]: 0.517 µM [falling, full curve, poor fit]
- AC50 [1]: 32.6 µM [falling, single point]

Compound: O=C(COC(=O)c1ccccc1F)NC1CC1
- cell number change: -39%
- AC50 [2]: 0.366 µM [falling, full curve, poor fit]

From PubChem BioAssay AID2685 (National Center for Advancing Translational Sciences (NCATS), 2010)
